# Primary screen of a compound library

Values are the deposited “Percent Effect”, in %.
The controls that fix the scale are not given in the record; negative values are as filed.
This is an unselected part of the compounds tested.
A dash means the value is not listed here; it may have been measured.

Mtb growth Cornell: 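Whole-cell assay for inhibitors of Mycobacterium tuberculosis growth, labelled Cornell in the record; the read-out is not stated. The concentration is filed as 10 mM, unlikely as a test dose, so the dose is not known. The record gives no direction; compounds strong in two other growth screens of this library score well above the rest, so higher reads as stronger inhibition. Of about 53,000 compounds tested this way, about 900 (1.7%) reached 50% or more in at least one test.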
Mtb heat-shock: 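Assay on Mycobacterium tuberculosis, filed only as a heat shock assay from Cornell; the read-out is not stated. The concentration is filed as 10 mM, unlikely as a test dose, so the dose is not known. Direction is inferred from retests: higher values go with stronger inhibition. Size under these conditions: about 69,000 compounds, about 930 of them at 50% or above in at least one test.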

With Cc1nc[nH]c1CN1CCC(CNC(=O)c2cccc3cnccc23)C1 (centres unmarked) the screen gave Mtb growth Cornell: -15.45%; Mtb heat-shock: 1.996%. With CCCn1nc2c(cc1=O)CN(CC1CCCCO1)CC2 (centres unmarked) the screen gave Mtb heat-shock: 15.69%. CC(C)(C)C(=O)N1CCCN(c2ncnc3nc(N)ccc23)CC1 gave Mtb growth Cornell: 2.944%; Mtb heat-shock: -10.6%. Result for COC(C)(C)Cn1ccnc1-c1cccc(C(C)N(C)C)c1 (centres unmarked) was Mtb growth Cornell: 6.412%; Mtb heat-shock: -20.81%. For O=C(CCn1cccn1)NCC(c1cccs1)N1CCOCC1 (centres unmarked) the result was Mtb growth Cornell: -4.739%; Mtb heat-shock: -6.581%.

Result for Cc1nc2ccccc2n1CCNCc1cccc(C#N)c1 was Mtb growth Cornell: -3.56%; Mtb heat-shock: 2.833%. With COCC(=O)N1Cc2cnc(Cc3ccc(OC)cc3)nc2C1 the screen gave Mtb growth Cornell: -27.03%; Mtb heat-shock: 8.118%. Result for Cc1cccc(CN2CCCC2c2cccc(Nc3nccs3)n2)c1 (centres unmarked) was Mtb growth Cornell: 12.37%; Mtb heat-shock: 104%. c1ccc2c(N3CCOCC3)cnnc2c1 read Mtb heat-shock: -14.11%. Result for CCN(c1cccc(F)c1)S(=O)(=O)c1cc(C(=O)O)cc2c1CCC2 was Mtb growth Cornell: 28.74%; Mtb heat-shock: 24.74%.

Result for CC(C)(C)c1csc(C2CCCCN2C(=O)CCn2cncn2)n1 (centres unmarked) was Mtb growth Cornell: 13.93%; Mtb heat-shock: -0.0936%. COCCn1c2c(ccc1=O)CCN(Cc1ccoc1)CC2 read Mtb growth Cornell: 10.73%; Mtb heat-shock: -0.4476%. Result for Cc1ccc(Cl)cc1N1CCN(CC(=O)NC(C)c2ccco2)CC1 (centres unmarked) was Mtb growth Cornell: -34.68%; Mtb heat-shock: 2.643%. CCn1cnnc1CCNS(=O)(=O)N1CCCC1c1ccco1 (centres unmarked) read Mtb growth Cornell: 4.095%; Mtb heat-shock: 0.7043%. Cc1ccc(CN(Cc2nc3c(cnn3C)c(=O)[nH]2)C2CC2)o1 read Mtb growth Cornell: 6.333%; Mtb heat-shock: -8.184%.

With O=S(=O)(NCC1(O)CCCC1)c1ccccc1Br the screen gave Mtb growth Cornell: 17.04%; Mtb heat-shock: -13.08%. Cc1ncsc1CCN(C)C(=O)CN1CC2(CCNCC2)OC1=O gave Mtb growth Cornell: 2.235%; Mtb heat-shock: -16.31%. For CN(C)CCN1CC(C(=O)N2CCC(c3nccn3C)CC2)CC1=O (centres unmarked) the result was Mtb growth Cornell: 7.879%; Mtb heat-shock: 4.962%. For O=C(CN1CCS(=O)(=O)CC1)Nc1ccc(N2CCCC2)nc1 the result was Mtb heat-shock: 29.13%. With CC(Cn1cccn1)NC(=O)Nc1ccc(N2CCCC2)nc1 (centres unmarked) the screen gave Mtb growth Cornell: -17.74%; Mtb heat-shock: -27.47%.

With CCc1cc(N2C[C@H](C3CC3)[C@@H](N)C2)nc(N2CCCC2)n1 the screen gave Mtb heat-shock: -20.65%. COc1cc(Br)c(CNC(C)c2nnc3n2CCC3)cc1OC (centres unmarked) read Mtb growth Cornell: -52.41%; Mtb heat-shock: -9.179%. For [H][C@]12CC(Cn3cccn3)N(C)[C@@]1([H])CCN(Cc1cnn(C)c1)C2 (some centres unmarked) the result was Mtb heat-shock: -24.02%. CC(C)(C)OC(=O)N1CCC[C@H](NCC2CCOCC2)C1 gave Mtb growth Cornell: 7.057%; Mtb heat-shock: 29.52%. With CC[C@@H](C)[C@@H](N)C(=O)Nc1cccc(-c2cnc(N(C)CCO)nc2)c1 the screen gave Mtb growth Cornell: 6.326%; Mtb heat-shock: -1.015%.

For O=C(NCCCNC(=O)c1cccc(O)c1)NCc1ccccc1F the result was Mtb growth Cornell: 4.489%; Mtb heat-shock: 8.633%. Cc1csc(CN(C)C(C)C(=O)N2CCc3ccccc3C2)n1 (centres unmarked) read Mtb growth Cornell: -17.3%; Mtb heat-shock: -10.75%. With Nc1nc(CN2CCCC(Cn3cncn3)C2)nc2ccccc12 (centres unmarked) the screen gave Mtb growth Cornell: -9.849%; Mtb heat-shock: -7.626%. CCc1ccc(C(=O)NCC2CCCN2CC)o1 (centres unmarked) read Mtb growth Cornell: 3.045%; Mtb heat-shock: -14.72%. CC(C)(C)n1nc(C(=O)NC2CCN(CC(N)=O)CC2)cc1C1CC1 gave Mtb growth Cornell: 3.575%; Mtb heat-shock: 19.52%.

Result for Cn1cncc1-c1nnc([C@H]2CCN(Cc3cccnc3)C2)o1 was Mtb growth Cornell: -34.85%; Mtb heat-shock: -31.59%.

Repeated from the top, 3 entries:

compound,Mtb growth Cornell,Mtb heat-shock
Cc1nc[nH]c1CN1CCC(CNC(=O)c2cccc3cnccc23)C1 (centres unmarked),-15.45%,1.996%
CCCn1nc2c(cc1=O)CN(CC1CCCCO1)CC2 (centres unmarked),-,15.69%
CC(C)(C)C(=O)N1CCCN(c2ncnc3nc(N)ccc23)CC1,2.944%,-10.6%

Measurements from “University of Dundee, Small-Polar-MMV Screening Library” (2021), ChEMBL document CHEMBL3988442.